These results are taken from publication PMC3247260.

By UniProt entry, the sequences of proteins in these tests, tags left out. Residues count along the entry.
UniProt P63165, residues 1-97: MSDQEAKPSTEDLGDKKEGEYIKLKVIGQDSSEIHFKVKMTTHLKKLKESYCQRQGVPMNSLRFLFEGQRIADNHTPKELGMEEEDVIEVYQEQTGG
UniProt P61956: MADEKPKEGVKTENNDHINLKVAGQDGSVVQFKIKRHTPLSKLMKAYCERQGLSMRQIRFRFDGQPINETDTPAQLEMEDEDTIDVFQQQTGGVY

Results are given in words; binding and its absence hold for the method and conditions named. For part of these data: In cells and extracts the contact can be indirect. For part of these data: Where a sequence is shown, tags or fusion partners need not be part of it.

Experiment [1] deals with T1, FLAG-tagged USP13-C345A (catalytically inactive form) (human) (UniProt Q92995).
T1 sequence: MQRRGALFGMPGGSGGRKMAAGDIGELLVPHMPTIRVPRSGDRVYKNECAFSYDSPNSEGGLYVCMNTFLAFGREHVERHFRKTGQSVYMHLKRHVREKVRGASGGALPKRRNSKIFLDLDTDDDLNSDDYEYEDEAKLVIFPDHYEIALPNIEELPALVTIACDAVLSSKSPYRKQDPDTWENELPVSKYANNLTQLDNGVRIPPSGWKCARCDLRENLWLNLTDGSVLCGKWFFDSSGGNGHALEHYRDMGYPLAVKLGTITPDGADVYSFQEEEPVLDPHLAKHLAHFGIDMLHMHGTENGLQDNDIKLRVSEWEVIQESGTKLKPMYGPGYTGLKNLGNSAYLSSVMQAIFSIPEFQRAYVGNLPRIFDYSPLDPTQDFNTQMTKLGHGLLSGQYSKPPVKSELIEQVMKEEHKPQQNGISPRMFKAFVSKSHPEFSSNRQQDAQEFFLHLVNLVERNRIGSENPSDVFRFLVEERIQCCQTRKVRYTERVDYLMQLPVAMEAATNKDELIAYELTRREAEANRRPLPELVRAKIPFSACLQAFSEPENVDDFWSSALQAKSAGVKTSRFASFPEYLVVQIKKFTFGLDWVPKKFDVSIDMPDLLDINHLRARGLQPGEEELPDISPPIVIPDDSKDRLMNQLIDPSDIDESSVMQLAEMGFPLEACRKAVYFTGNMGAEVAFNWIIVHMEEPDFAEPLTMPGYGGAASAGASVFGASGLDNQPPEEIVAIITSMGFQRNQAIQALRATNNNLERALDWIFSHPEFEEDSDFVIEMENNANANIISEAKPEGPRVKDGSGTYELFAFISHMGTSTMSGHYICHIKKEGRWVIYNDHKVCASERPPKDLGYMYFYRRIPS
Kind of experiment: co-IP; HEK 293T cells transfected with FLAG-tagged USP13; IP: anti-FLAG antibody; IB: anti-Ub, anti-ISG15, anti-SUMO1 and anti-SUMO2 antibodies; 50% lysates as input.

A further experiment addresses GST-fused SUMO1 (UniProt P63165). Kind of experiment: pull-down; GST-fused Ub, ISG15, SUMO1 or SUMO2 loaded on glutathione agarose, USP13 or USP13-UBA12 (~100 µM) added; 1-hr incubation, washed three times, eluted by GSH buffer; SDS-PAGE with Coomassie blue staining; both purified.
For the next experiment, the target named is GST-fused SUMO2 (UniProt P61956). Described as above.

With “SUMO1 of HEK 293T cells (from UniProt P63165 1-97)”, the binding entry in experiment [1] was “no binding”. “tandem UBA domains of USP13 (USP13-UBA12, residues 652-776) (from UniProt Q92995 652-776) (domain or fragment)”: the binding result with GST-fused SUMO1 and with GST-fused SUMO2 was “no binding (tested: ~100 µM USP13-UBA12)” throughout.
